Source: publication PMC9636422
No constants are given. Whether binding was seen depends on the method and setting. Binding seen in cells or lysates may run through a third protein. A yes stands for co-enrichment or nearness to the bait. Other partners may have been found.

Sequences of proteins named here, by UniProt entry; tags and fusion partners are left off. A change or cut given only in a name is not applied to a line headed by its entry. A line that says so, or that is headed by a name, gives the form on record, which may keep a tag or linker.
UniProt O14977: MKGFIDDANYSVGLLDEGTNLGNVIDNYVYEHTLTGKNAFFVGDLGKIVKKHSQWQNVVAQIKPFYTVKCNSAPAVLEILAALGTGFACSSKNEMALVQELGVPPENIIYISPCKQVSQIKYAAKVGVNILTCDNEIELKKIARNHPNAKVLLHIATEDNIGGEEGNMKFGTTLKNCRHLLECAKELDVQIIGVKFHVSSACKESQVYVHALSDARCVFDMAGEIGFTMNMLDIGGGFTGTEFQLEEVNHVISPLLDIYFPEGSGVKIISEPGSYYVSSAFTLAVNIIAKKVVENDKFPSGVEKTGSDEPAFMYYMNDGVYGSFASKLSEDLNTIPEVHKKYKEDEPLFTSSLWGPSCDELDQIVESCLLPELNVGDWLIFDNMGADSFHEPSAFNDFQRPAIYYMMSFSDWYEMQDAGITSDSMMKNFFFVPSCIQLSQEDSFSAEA
FLAG-tagged edited AZIN1 (Ser367Gly) (O14977, form named): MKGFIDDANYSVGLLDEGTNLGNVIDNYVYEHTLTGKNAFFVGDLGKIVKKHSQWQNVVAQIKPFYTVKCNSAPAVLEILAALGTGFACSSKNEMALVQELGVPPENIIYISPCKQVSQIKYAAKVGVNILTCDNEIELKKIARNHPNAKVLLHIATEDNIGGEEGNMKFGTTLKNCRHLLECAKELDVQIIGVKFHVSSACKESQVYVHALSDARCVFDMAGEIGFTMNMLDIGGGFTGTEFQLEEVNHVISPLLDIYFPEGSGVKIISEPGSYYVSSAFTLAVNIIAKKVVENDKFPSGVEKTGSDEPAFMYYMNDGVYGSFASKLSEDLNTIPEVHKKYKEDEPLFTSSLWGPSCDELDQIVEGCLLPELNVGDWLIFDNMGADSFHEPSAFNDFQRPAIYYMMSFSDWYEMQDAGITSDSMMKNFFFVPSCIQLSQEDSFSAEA
UniProt P35579: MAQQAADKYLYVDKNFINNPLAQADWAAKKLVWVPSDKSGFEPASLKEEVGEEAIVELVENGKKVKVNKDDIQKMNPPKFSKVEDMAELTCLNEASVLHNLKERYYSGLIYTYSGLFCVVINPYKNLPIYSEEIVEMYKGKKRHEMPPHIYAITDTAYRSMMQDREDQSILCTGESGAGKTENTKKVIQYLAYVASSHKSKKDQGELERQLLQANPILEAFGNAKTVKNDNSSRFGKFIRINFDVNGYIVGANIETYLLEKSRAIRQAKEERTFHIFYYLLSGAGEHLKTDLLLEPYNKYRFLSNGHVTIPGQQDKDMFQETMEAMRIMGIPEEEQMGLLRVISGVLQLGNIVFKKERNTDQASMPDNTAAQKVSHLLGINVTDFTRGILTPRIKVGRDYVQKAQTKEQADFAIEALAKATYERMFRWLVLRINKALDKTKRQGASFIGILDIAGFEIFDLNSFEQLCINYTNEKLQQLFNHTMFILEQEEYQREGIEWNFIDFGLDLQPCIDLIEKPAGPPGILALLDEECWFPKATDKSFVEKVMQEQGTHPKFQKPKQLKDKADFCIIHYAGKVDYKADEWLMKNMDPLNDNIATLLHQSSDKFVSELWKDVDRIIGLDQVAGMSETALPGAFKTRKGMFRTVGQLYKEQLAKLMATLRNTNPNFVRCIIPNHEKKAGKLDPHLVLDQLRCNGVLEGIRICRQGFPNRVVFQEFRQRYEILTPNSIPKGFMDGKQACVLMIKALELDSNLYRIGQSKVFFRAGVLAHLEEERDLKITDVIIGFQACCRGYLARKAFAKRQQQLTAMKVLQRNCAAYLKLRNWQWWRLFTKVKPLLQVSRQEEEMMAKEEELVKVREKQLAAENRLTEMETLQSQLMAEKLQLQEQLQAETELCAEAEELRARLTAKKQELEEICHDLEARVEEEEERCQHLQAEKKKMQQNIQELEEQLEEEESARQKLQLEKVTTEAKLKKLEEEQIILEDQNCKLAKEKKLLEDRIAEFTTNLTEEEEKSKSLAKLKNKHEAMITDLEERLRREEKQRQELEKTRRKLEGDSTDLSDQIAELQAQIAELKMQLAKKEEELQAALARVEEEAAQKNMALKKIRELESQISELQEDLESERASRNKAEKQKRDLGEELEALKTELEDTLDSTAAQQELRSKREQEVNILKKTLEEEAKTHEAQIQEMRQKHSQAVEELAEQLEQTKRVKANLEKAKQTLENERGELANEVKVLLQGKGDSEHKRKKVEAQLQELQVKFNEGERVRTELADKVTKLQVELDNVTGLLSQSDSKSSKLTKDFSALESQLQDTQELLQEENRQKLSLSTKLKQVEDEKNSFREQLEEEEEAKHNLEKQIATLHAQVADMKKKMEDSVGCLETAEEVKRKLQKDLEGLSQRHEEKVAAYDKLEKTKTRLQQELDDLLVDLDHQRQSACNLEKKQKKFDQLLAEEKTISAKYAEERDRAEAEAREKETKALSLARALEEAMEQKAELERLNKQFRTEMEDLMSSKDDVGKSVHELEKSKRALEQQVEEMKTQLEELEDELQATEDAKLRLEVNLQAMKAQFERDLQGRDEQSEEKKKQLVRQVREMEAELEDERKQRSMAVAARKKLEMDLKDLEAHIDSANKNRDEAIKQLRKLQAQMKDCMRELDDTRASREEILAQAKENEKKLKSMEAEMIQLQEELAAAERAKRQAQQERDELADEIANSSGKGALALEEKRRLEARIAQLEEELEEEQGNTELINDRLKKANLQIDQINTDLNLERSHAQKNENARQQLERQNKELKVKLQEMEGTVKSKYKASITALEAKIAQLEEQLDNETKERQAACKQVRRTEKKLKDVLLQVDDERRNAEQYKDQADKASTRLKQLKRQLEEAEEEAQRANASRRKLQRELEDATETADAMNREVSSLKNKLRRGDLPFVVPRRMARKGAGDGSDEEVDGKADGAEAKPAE

Target: FLAG-tagged edited AZIN1 (Ser367Gly) (human) (UniProt O14977)
Assay: affinity purification with mass spectrometry; HEK293 cells transfected with FLAG-wtAZIN1 or FLAG-edAZIN1; anti-FLAG immunoprecipitation, gel electrophoresis, Coomassie-stained bands analysed by LC-MS/MS; IgG as control

binding: binds
Substance: myosin-9 (from UniProt P35579 1-1960)
